Results taken from PubChem BioAssay AID493014 (National Center for Advancing Translational Sciences (NCATS), 2011).
Hit rate of the full screen: of about 340,000 compounds, about 170 (0.05%) were called active. Inconclusive results, whose numbers are uncertain, are shown with a selection of clear calls. The call rests on the fitted dose curve; in most records, active means well fitted inhibition curve with a large enough effect in the signal ratio, with a control signal flat (not every such curve was filed as active); inconclusive means small, poorly fitted or top-dose-only effect, or effect the other way, or a change in a side signal; inactive means flat fitted curve, though single readings scatter; the % refers to the signal ratio. Where the call is inconclusive, the potency comes from a doubtful curve fit.

assay: qHTS Assay to Find Inhibitors of Chronic Active B-Cell Receptor Signaling; details: ABC-DLBCL IkBa-CBG/CBR reporter, luminescence ratio (green luciferase fused to IkBa over red control in TMD8 lymphoma cells), 4 h; activity change, negative = inhibition: at 46.1 µM (top of the series);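 on activity change, negative = inhibition: plate controls were basal doxycycline-induced cells for no effect and cells given 10 µM MG132 for full effect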
In short: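 Cell line TMD8 (human ABC DLBCL), stably expressing tet-inducible CBG68-IkBa fusion and CBR; IMDM/0.5% FBS; cpd up to 46 uM; dox induction, 4 h, 37C/5% CO2; dual luminescence; green/red ratio; MG132 control.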
Potency means the concentration at half of the fitted maximal effect.

Structure (SMILES)	activity change, negative = inhibition	Potency
COc1ccc(N/C=C/C(=O)C(C)(C)C)cc1	inconclusive: 5.71%	
CCCCNC(=S)Nc1cccc(C(C)=O)c1	inconclusive: 3.14%	
Cc1ccc(C(=O)Oc2ccc3c(c2)ncn3C)cc1	inconclusive: 28.7%	
COC(=O)CNC(=O)Cc1c(F)cccc1Cl	inconclusive: 0.741%	
COc1ccccc1-c1nnc(SCc2nc3ccccc3s2)n1C	inactive	
O=C(COc1ccccc1-c1ccccc1)N/N=C/c1cccc2ccccc12	inconclusive: 272%	
Cc1ccc(C)c(N2CCN(C(=O)COc3cc(=O)n(C)c4ccccc34)CC2)c1	inconclusive: -0.57%	
Cc1ccc(N2CC(NC(=O)/C=C\c3ccc4c(c3)OCO4)CC2=O)cc1 (stereo unspecified)	inactive	
CCCC(=O)Nc1ccc(Cl)c(NC(=S)NC(=O)C(C)C)c1	inconclusive: 1.41%	
Cc1ccc(NC(=O)c2cc(-c3ccccc3)nn2-c2ccccc2)cc1	inactive	
O=C(Nc1ccc(F)cc1)N1CCOCC1	inactive	
CC(C)C(=O)Nc1ccc(-c2ccc3nncn3n2)cc1	inconclusive: 4.3%	
Cc1c(CN2CCC(CO)(CCOc3ccccc3)CC2)[nH]c2c(Cl)cccc12		inconclusive: 35.5 µM [falling, partial curve, poor fit]
O=C1Nc2cc(Cl)ccc2Oc2cc(Oc3ccccc3)ccc21		inconclusive: 35.5 µM [rising, single point]
COc1ccc(NC(=O)/C(Cl)=C(/Cl)S(=O)Cc2ccc(Cl)cc2)cn1 (stereo unspecified)	inconclusive: 28.2%	
COc1ccccc1CNC(=O)c1cc(=O)c2ccccc2o1	inconclusive: 2.54%	
O=C(CSc1nc2c(c(=O)[nH]1)CCC2)Nc1ccccc1Cl	inconclusive: 0.85%	
O=[N+]([O-])c1c(NCc2ccccc2)cc(N2CCc3ccccc3C2)c2nonc12	inconclusive: 14.6%	
Cc1ccc(NC(=O)CSc2nnc(CNC(=O)c3ccco3)n2C)cc1	inconclusive: -0.636%	

Structure (SMILES)	activity change, negative = inhibition	Potency
O=C(CCC(=O)Nc1ccc(Cl)cc1)N/N=C/c1ccc2c(c1)OCO2	inconclusive: 4.44%	
Cc1ccc(CCNC(=O)CCc2nc3ccccc3[nH]2)cc1	inconclusive: 9.49%	
Cc1c(C)c2ccc(OCC(=O)NCCN3CCOCC3)c(C)c2oc1=O	inconclusive: -14.9%	
Cc1ccc(C(=O)c2sc3nsc(C)c3c2N)cc1	inconclusive: 9.79%	
CCc1ccc(NC(=O)CCNS(=O)(=O)c2cccc3nonc23)cc1	inconclusive: 10.1%	
Cc1nc2sc3c(c2c(=O)o1)CC(C)(C)OC3	inconclusive: 10%	
COc1ccc(C(=S)NC2CCCCC2)cc1	inconclusive: -0.388%	
N=C1/C(=C/c2ccc(OCc3ccccc3F)cc2)C(=O)N=C2SC(CC(=O)N3CCOCC3)=NN12	inconclusive: 12.6%	
Cc1ccc(C(=O)Nc2ccccc2C(=O)N2CC3(C)CC2CC(C)(C)C3)cc1 (stereo unspecified)	inactive	
CCOC(=S)SCC(=O)Nc1nccs1	inconclusive: -13.6%	
O=C(CN1c2cccc3cccc(c23)S1(=O)=O)Nc1ccccc1	inconclusive: -6.6%	
Cc1ccc(OCc2ccc(C(=O)Nc3nccs3)o2)cc1	inactive	
Cc1c[nH]c2cccc(OCC(O)CNC(C)(C)C)c12 (stereo unspecified)	inconclusive: 11.1%	
CCOc1cc(CNn2cnnc2)cc(Cl)c1OCC(=O)NC(C)(C)C		inconclusive: 2.82 µM [falling, partial curve, poor fit]
CC(Cc1cccs1)NC(=O)Nc1ccc(Cl)cc1 (stereo unspecified)	inconclusive: 2.83%	
O=C(N/N=C/c1ccc(Cl)c([N+](=O)[O-])c1)c1cc(-c2ccc3c4c(cccc24)CC3)n[nH]1	inconclusive: 6.43%	
Cc1ccc(CCNC(=O)c2ccc(CSCc3ccc(C)cc3)o2)cc1	inactive	
CC(C)NC(C(=O)Nc1cc(Cl)cc(Cl)c1)c1ccccc1 (stereo unspecified)	inconclusive: 12.6%	
COc1ccc(CCNC(=O)Cn2cccc2C(=O)c2ccccc2)cc1OC		inconclusive: 4.61 µM [falling, partial curve, poor fit]

Structure (SMILES)	activity change, negative = inhibition	Potency
CCCn1c(N)c(C(=O)CSc2ncc(C(F)(F)F)cc2Cl)c(=O)[nH]c1=O	inconclusive: -2.23%	
C=CCC1(CC=C)CCCN1C(=O)c1cc(COc2ccc(F)c(F)c2)on1	inactive	
CN(C)c1cccc(C(=O)Nc2ccc(-c3nc4ccccc4s3)cc2)c1	inactive	
C=C(C)C1CC=C(C)/C(=N\NC(=O)CCc2ccccc2)C1 (stereo unspecified)	inconclusive: 4.43%	
COC(=O)c1cc(OC)c(OC)cc1NC(=S)Nc1cccc(C(C)=O)c1	inconclusive: 6.3%	
CC(=O)c1ccc(S(=O)(=O)N2CCCCC2C(=O)O)cc1 (stereo unspecified)		inconclusive: 28.2 µM [falling, partial curve]
Cc1ccc(N=Nc2c(O)n(CN3CCOCC3)c3ccccc23)cc1		inconclusive: 20 µM [falling, single point]
COc1ccc(C2NC(=O)NC(C)=C2C(=O)OCC2CCCCC2)cc1OC (stereo unspecified)	inconclusive: -13.3%	
COc1cc(OC)c(OC)cc1CNC(=O)c1cc(=O)[nH]c2ccccc12	inactive	
CN(C)c1ccccc1C(=O)c1ccccc1N(C)C	inactive	
O=C(CCN1C(=O)/C(=C\c2ccccc2)SC1=S)NNC(=O)c1ccncc1	inactive	
O=C(Nc1cnc2sc3c(n2c1=O)CCCC3)c1ccc(F)cc1	inconclusive: 6.62%	
COc1ccc(-c2c(=O)n(OC)c3ccccc3[n+]2[O-])cc1OC	inconclusive: 2.01%	
Cc1cccc(C)c1NC(=O)C1NC(=O)CC1c1ccccc1 (stereo unspecified)	inconclusive: 0.741%	
COc1ccc(-n2nc(C(=O)NCC(=O)Nc3ccc(F)cc3)c3ccccc3c2=O)cc1		inconclusive: 12.6 µM [falling, partial curve]
C#Cc1ccc(CN2CCN(Cc3ccsc3)C(CCO)C2)cc1 (stereo unspecified)	inconclusive: -5.44%	
COc1ccc(Oc2ncccc2[N+](=O)[O-])cc1	inconclusive: -1.63%	
C=CC[C@@H](CC(=O)N[C@@H](CO)Cc1ccccc1)C(=O)N[C@@H](COC(=O)[C@H](CC=C)CC(=O)OC(C)(C)C)Cc1c[nH]c2ccccc12	inconclusive: 0.791%	

Some of the entries above in another layout.

| Structure (SMILES) | activity change, negative = inhibition | Potency |
| --- | --- | --- |
| O=C(CCN1C(=O)/C(=C\c2ccccc2)SC1=S)NNC(=O)c1ccncc1 | inactive |  |
| C=CC[C@@H](CC(=O)N[C@@H](CO)Cc1ccccc1)C(=O)N[C@@H](COC(=O)[C@H](CC=C)CC(=O)OC(C)(C)C)Cc1c[nH]c2ccccc12 | inconclusive: 0.791% |  |
